# Laboratory results taken from the supplement of paper PMC6411743.
# The chains behind the UniProt entries cited, without tags or fusion partners. Where a name states a change or a piece, a line headed by the entry shows the natural chain unless it says otherwise.
# UniProt P05120, whole entry: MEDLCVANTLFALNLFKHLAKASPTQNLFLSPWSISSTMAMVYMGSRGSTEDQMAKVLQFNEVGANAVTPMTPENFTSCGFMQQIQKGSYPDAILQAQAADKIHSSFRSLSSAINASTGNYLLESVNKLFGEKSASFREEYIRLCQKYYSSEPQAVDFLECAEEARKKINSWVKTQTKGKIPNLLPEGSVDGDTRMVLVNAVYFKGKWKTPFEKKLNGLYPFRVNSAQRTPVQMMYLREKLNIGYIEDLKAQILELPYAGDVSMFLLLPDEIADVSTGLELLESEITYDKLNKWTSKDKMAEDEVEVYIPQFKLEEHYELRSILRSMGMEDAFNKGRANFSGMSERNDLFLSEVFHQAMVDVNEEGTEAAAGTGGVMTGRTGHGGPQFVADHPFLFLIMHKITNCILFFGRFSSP
# UniProt P25208: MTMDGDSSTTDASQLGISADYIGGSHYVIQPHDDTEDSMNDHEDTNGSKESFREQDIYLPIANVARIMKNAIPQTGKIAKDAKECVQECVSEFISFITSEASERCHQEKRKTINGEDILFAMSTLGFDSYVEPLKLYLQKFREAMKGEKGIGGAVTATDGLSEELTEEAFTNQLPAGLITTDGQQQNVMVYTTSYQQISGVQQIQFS
# UniProt Q15369, whole entry: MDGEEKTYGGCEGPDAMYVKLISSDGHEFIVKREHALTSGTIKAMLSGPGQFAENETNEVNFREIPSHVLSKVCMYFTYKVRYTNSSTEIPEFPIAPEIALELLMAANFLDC
# UniProt Q9GZM5: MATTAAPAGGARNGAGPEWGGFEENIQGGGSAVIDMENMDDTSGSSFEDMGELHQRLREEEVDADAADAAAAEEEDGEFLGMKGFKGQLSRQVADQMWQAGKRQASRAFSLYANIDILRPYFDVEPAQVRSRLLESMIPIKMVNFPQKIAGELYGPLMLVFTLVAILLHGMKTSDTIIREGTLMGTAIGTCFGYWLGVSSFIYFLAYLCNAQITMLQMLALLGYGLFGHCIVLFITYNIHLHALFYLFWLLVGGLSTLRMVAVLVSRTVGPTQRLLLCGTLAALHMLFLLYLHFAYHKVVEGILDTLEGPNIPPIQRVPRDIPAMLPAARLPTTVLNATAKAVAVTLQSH
# UniProt O00214: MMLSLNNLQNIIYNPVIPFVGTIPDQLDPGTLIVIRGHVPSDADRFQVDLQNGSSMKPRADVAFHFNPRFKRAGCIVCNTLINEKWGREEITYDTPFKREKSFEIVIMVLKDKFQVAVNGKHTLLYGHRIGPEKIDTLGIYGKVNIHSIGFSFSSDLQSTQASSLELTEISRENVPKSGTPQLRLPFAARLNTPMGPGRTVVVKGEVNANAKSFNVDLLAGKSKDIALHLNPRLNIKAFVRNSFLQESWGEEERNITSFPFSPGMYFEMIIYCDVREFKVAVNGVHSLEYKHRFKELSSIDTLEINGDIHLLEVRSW
# UniProt Q9UI10, whole entry: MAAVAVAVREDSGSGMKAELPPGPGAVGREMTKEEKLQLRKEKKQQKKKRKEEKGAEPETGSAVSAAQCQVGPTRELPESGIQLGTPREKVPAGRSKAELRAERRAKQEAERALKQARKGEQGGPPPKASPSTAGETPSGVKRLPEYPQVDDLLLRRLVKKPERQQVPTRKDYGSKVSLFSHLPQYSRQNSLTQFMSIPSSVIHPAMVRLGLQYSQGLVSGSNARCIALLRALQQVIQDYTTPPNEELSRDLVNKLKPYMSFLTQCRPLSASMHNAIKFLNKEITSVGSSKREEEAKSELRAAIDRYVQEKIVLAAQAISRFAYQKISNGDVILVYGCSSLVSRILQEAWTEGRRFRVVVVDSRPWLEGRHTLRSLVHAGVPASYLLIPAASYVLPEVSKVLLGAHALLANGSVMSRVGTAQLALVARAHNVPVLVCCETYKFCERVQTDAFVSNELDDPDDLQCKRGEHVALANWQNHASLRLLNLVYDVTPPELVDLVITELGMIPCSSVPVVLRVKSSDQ
# UniProt Q16875: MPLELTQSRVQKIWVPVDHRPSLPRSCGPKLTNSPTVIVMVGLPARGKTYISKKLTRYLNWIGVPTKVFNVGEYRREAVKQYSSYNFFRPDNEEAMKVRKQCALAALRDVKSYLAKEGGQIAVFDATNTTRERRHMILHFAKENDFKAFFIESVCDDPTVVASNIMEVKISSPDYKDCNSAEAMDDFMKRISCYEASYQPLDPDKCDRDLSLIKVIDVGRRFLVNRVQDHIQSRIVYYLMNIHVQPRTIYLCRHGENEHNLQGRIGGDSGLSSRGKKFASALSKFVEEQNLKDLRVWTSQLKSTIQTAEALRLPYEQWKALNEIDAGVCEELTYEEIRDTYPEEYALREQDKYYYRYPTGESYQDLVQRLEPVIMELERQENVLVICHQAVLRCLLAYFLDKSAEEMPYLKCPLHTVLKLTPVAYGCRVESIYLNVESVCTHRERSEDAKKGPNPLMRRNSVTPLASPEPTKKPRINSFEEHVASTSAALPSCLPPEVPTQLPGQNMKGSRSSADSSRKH
# UniProt Q07866: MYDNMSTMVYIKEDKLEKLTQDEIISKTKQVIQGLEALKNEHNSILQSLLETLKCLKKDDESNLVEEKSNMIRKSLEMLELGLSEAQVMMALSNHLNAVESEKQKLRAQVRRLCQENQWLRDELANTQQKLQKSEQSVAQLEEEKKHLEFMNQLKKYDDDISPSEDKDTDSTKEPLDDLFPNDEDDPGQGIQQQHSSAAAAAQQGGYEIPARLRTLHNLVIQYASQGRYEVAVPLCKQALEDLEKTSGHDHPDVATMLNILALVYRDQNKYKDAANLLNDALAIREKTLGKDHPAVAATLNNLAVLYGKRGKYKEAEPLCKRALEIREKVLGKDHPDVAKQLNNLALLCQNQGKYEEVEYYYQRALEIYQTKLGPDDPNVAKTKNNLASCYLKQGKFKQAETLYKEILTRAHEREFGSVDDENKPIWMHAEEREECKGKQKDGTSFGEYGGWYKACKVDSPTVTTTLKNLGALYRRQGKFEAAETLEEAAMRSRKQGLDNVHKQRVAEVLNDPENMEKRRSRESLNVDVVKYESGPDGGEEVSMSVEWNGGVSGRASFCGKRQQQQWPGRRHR
# UniProt P32322: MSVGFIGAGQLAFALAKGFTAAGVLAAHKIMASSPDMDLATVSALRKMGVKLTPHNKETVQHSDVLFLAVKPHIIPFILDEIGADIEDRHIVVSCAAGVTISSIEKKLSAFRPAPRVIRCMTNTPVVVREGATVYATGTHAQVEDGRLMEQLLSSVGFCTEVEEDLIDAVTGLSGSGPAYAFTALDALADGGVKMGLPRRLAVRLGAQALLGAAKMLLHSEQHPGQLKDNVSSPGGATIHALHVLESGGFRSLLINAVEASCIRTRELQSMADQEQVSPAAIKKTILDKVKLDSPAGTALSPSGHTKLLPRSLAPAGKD
# UniProt O95831, whole entry: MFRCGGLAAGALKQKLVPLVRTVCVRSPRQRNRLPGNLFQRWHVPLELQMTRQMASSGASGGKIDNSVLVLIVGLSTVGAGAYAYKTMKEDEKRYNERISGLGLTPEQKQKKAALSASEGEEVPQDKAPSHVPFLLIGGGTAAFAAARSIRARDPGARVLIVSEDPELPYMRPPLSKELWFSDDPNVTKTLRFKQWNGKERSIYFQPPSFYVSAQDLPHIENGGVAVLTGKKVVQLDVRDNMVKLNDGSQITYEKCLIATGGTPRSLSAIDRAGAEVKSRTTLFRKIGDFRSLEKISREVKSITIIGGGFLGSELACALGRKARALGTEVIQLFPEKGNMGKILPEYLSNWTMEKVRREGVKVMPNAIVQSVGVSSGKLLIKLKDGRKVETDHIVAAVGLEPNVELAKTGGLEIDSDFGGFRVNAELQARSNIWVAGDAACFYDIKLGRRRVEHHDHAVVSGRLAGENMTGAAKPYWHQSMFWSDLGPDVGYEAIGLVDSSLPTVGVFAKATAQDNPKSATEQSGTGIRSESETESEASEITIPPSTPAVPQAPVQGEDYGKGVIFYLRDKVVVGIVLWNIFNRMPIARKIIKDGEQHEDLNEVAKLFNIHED
# UniProt Q9HCU9: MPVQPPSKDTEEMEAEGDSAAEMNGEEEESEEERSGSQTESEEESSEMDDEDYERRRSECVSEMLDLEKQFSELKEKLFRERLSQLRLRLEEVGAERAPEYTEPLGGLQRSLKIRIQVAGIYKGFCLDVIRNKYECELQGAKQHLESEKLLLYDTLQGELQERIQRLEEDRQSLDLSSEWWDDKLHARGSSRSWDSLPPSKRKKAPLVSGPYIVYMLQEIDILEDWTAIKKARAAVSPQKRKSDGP
# UniProt Q92994: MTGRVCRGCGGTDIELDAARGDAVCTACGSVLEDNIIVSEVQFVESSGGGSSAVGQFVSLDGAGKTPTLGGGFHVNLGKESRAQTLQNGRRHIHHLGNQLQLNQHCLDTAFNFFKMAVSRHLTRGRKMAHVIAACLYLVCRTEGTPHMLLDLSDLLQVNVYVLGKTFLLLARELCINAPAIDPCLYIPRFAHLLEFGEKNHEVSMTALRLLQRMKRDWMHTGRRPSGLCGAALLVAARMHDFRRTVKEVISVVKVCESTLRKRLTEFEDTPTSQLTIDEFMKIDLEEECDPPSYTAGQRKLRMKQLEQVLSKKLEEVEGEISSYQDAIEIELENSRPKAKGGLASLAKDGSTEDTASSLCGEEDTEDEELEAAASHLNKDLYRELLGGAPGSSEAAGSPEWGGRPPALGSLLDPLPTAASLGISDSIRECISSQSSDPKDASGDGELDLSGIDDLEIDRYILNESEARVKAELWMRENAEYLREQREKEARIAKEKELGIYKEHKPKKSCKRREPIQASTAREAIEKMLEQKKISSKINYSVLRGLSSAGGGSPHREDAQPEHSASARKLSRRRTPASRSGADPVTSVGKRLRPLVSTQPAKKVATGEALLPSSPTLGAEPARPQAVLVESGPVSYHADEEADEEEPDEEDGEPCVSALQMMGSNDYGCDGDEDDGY
# UniProt Q9H9C1: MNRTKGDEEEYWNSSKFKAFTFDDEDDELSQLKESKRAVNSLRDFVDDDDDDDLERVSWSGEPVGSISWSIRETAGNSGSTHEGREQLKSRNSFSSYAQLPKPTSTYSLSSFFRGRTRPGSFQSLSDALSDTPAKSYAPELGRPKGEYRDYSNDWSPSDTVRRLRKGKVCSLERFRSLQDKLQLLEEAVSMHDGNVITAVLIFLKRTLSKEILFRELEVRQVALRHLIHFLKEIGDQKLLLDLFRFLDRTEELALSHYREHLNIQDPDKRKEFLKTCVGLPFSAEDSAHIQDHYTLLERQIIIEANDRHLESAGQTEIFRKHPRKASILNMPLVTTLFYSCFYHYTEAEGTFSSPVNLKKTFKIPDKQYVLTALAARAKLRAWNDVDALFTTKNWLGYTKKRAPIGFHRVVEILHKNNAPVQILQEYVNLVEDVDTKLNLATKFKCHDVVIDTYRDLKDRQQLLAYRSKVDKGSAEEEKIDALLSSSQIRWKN
# UniProt Q13889: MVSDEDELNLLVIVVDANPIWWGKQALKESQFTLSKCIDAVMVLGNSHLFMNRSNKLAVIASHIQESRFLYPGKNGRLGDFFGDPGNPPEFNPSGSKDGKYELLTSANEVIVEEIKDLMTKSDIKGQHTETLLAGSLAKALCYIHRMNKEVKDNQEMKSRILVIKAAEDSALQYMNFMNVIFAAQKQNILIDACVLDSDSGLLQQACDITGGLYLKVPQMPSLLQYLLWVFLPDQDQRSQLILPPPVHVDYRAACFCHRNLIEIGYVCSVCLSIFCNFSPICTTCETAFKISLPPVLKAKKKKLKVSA
# UniProt Q9GZR7: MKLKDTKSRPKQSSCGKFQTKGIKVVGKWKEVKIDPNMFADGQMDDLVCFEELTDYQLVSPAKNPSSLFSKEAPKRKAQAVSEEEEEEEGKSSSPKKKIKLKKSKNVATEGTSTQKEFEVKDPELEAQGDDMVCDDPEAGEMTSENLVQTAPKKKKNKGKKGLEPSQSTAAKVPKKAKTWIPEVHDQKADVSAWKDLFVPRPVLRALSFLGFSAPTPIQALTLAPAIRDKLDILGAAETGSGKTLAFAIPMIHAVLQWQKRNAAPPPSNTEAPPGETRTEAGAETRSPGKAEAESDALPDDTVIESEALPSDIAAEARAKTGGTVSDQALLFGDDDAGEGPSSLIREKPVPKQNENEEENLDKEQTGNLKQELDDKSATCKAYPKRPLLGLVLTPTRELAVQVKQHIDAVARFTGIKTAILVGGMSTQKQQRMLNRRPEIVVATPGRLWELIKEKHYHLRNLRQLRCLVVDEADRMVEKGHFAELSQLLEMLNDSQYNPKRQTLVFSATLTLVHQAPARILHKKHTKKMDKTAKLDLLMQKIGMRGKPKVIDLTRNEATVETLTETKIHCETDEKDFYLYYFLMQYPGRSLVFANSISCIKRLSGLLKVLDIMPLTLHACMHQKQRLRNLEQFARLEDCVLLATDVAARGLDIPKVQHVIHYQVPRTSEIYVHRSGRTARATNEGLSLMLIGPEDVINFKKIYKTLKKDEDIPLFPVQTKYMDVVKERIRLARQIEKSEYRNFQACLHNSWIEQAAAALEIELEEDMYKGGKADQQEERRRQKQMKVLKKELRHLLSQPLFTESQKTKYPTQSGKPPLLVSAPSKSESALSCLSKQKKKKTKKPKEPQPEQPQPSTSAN
# ± gives the standard deviation of the averaged measurements. Only a part is listed here, and it is no random draw.
# Compound: Nc1ncnc2c1ncn2[C@@H]1O[C@H](COP(=O)(O)OP(=O)(O)OP(=O)(O)O)[C@@H](O)[C@H]1O [adenosine triphosphate]
# Assay: NP40-soluble protein abundance relative to vehicle (solubility fold change) (ratio); higher = more soluble protein in presence of ATP
# Procedure, shortened: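 Jurkat crude lysate prepared with a Dounce homogeniser was treated at eight concentrations spanning 0.1 to 10 mM, 10 min at room temperature then 3 min at 37 °C. Solubilisation with 0.8% NP40 and benzonase and ultracentrifugation preceded TMT labelling of the supernatant for LC-MS/MS. Fold change against the detergent-processed vehicle was determined per replicate from vsn-normalised intensities, across three independent experiments.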
Target,NP40-soluble protein abundance (concentration: 1mM),NP40-soluble protein abundance (concentration: 2mM),NP40-soluble protein abundance (concentration: 4mM),NP40-soluble protein abundance (concentration: 6mM),NP40-soluble protein abundance (concentration: 8mM),NP40-soluble protein abundance (concentration: 10mM)
E9PLI6 and related entries (UniProt Q8N9N8),1.05 ± 0.0085,1.04 ± 0.012,1.05 ± 0.025,1.07 ± 0.014,0.987 ± 0.089,1.01 ± 0.092
E9PGT6 and related entries (UniProt Q99627),1.03 ± 0.022,1.01 ± 0.054,1.02 ± 0.026,1 ± 0.017,1.01 ± 0.014,0.944 ± 0.038
F6Y5H0 and related entries (UniProt P29558),0.95 ± 0.081,0.93 ± 0.022,0.89 ± 0.021,0.947 ± 0.085,0.915 ± 0.032,0.905 ± 0.025
E2QRF9 and related entries (UniProt O75496),0.9557 ± 0.0071,0.916 ± 0.053,0.923 ± 0.015,0.91 ± 0.049,0.88 ± 0.029,0.882 ± 0.11
E7EPJ9 and related entries (UniProt P05120),0.927 ± 0.04,0.986 ± 0.076,0.936 ± 0.016,0.997 ± 0.056,0.95 ± 0.068,0.934 ± 0.016
F5H5U2 and related entries (UniProt Q8NHQ9),1.05 ± 0.048,1.05 ± 0.024,1.13 ± 0.088,1.18 ± 0.033,1.33 ± 0.13,1.54 ± 0.038
F5H5G1 and related entries (UniProt Q13449),0.976 ± 0.1,0.96 ± 0.051,0.981 ± 0.075,0.985 ± 0.14,0.911 ± 0.11,0.894 ± 0.019
E9PJK5 and related entries (UniProt Q8N612),1.1 ± 0.18,1.08 ± 0.19,0.966 ± 0.19,1.32 ± 0.3,0.973 ± 0.032,1.13 ± 0.14
F8VSL3 and related entries (UniProt P25208),0.996 ± 0.065,0.976 ± 0.067,0.926 ± 0.059,0.994 ± 0.083,0.952 ± 0.1,0.882 ± 0.076
E7EN19 and related entries (UniProt O95819),0.992 ± 0.034,0.995 ± 0.024,0.999 ± 0.02,1.02 ± 0.021,1.014 ± 0.0066,1 ± 0.025
E7EXA6 and related entries (UniProt Q8WVB6),1.27 ± 0.046,1.25 ± 0.052,1.27 ± 0.056,1.3 ± 0.082,1.29 ± 0.059,1.31 ± 0.079
E5RHG8 and related entries (UniProt Q15369),1.02 ± 0.062,0.99 ± 0.011,0.94 ± 0.031,1.03 ± 0.036,0.948 ± 0.02,0.899 ± 0.034
F5H0U5 and related entries (UniProt Q9NZD2),0.918 ± 0.065,0.907 ± 0.033,0.926 ± 0.076,0.889 ± 0.046,0.917 ± 0.06,0.793 ± 0.13
E9PKC0 and related entries (UniProt Q6IQ23),1.22 ± 0.077,1.26 ± 0.051,1.27 ± 0.077,1.39 ± 0.076,1.33 ± 0.056,1.38 ± 0.09
E9PBC1 and related entries (UniProt O95208),0.8724 ± 0.0021,0.931 ± 0.011,0.93 ± 0.054,0.918 ± 0.12,0.871 ± 0.07,0.856 ± 0.078
E9PF16 and related entries (UniProt Q96CM8),0.989 ± 0.026,0.991 ± 0.043,0.974 ± 0.031,0.96 ± 0.066,0.983 ± 0.029,0.964 ± 0.059
F5GYQ1 and related entries (UniProt P61421),1.07 ± 0.12,0.997 ± 0.087,0.985 ± 0.11,0.936 ± 0.071,1.02 ± 0.07,0.961 ± 0.069
F5H702 and related entries (UniProt Q96GC5),1.07 ± 0.078,0.99 ± 0.08,0.962 ± 0.12,1.01 ± 0.2,1.01 ± 0.17,1 ± 0.14
E9PG19 and related entries (UniProt O94868),0.963 ± 0.014,0.956 ± 0.012,0.982 ± 0.034,1.01 ± 0.048,0.962 ± 0.051,0.953 ± 0.029
E7EQR8 and related entries (UniProt Q9GZM5),0.981 ± 0.085,1.03 ± 0.05,1.01 ± 0.041,1.07 ± 0.072,1.02 ± 0.04,1.01 ± 0.013
F8VXC8 and related entries (UniProt Q8TAQ2),1.06 ± 0.064,1.06 ± 0.05,1.06 ± 0.076,1.14 ± 0.15,1.12 ± 0.079,1.11 ± 0.048
F6V2D4 and related entries (UniProt O00214),0.975 ± 0.066,0.999 ± 0.077,1.18 ± 0.35,1.05 ± 0.19,1.08 ± 0.16,1.04 ± 0.16
F8VX04 and related entries (UniProt Q9H2H9),0.844 ± 0.032,0.892 ± 0.071,0.838 ± 0.02,0.85 ± 0.03,0.805 ± 0.039,0.8 ± 0.056
E9PLY5 and related entries (UniProt Q9UPN3+H3BQK9+H3BPE1+E9PLY5),1 ± 0.025,1 ± 0.022,0.996 ± 0.029,1.02 ± 0.034,0.982 ± 0.025,0.996 ± 0.025
F8W8I6 and related entries (UniProt P31483),0.982 ± 0.018,0.985 ± 0.0099,0.964 ± 0.015,0.99 ± 0.039,0.955 ± 0.0095,0.947 ± 0.016
E7ERK9 and related entries (UniProt Q9UI10),0.971 ± 0.054,0.991 ± 0.033,1 ± 0.032,0.943 ± 0.031,1.02 ± 0.035,1.05 ± 0.048
E7ERS3 and related entries (UniProt Q86VM9),1.07 ± 0.12,1.12 ± 0.12,1.16 ± 0.16,1.3 ± 0.19,1.21 ± 0.14,1.26 ± 0.13
F2Z2I2 and related entries (UniProt Q16875),1.02 ± 0.077,0.964 ± 0.076,0.976 ± 0.068,0.949 ± 0.11,0.981 ± 0.07,0.966 ± 0.032

# Quoted from the listing.
# NP40-soluble protein abundance (concentration: 4mM), E9PJK5 and related entries (UniProt Q8N612) is entered as 0.966 ± 0.19
# NP40-soluble protein abundance (concentration: 4mM), F6Y5H0 and related entries (UniProt P29558) is entered as 0.89 ± 0.021
# NP40-soluble protein abundance (concentration: 6mM), F5H5G1 and related entries (UniProt Q13449) is entered as 0.985 ± 0.14
# NP40-soluble protein abundance (concentration: 4mM), E7ERK9 and related entries (UniProt Q9UI10) is entered as 1 ± 0.032

# Remaining list, next part:

Target,NP40-soluble protein abundance (concentration: 1mM),NP40-soluble protein abundance (concentration: 2mM),NP40-soluble protein abundance (concentration: 4mM),NP40-soluble protein abundance (concentration: 6mM),NP40-soluble protein abundance (concentration: 8mM),NP40-soluble protein abundance (concentration: 10mM)
E9PJD7 (UniProt P0DTL6),1.09 ± 0.079,1.08 ± 0.098,1.06 ± 0.056,1.05 ± 0.096,1.06 ± 0.17,1.06 ± 0.077
G5E994 and related entries (UniProt Q5VW38),0.899 ± 0.074,1.08 ± 0.11,0.931 ± 0.059,1.05 ± 0.13,0.913 ± 0.11,0.925 ± 0.12
E9PN30 and related entries (UniProt Q9BQE4),1.02 ± 0.087,1 ± 0.12,1.04 ± 0.18,0.895 ± 0.13,1.06 ± 0.089,0.892 ± 0.067
G3V3H3 and related entries (UniProt Q07866),0.9516 ± 0.0045,0.947 ± 0.034,0.917 ± 0.042,0.971 ± 0.032,0.91 ± 0.049,0.913 ± 0.049
F2Z2U4 and related entries (UniProt Q9Y4A5),1.07 ± 0.073,1.035 ± 0.01,1.08 ± 0.035,1.03 ± 0.038,1.14 ± 0.054,1.14 ± 0.054
E9PKF6 and related entries (UniProt Q5H9R7),0.964 ± 0.032,0.96 ± 0.035,0.942 ± 0.043,0.955 ± 0.038,0.945 ± 0.057,0.943 ± 0.036
F8W950 and related entries (UniProt Q13155),0.977 ± 0.032,0.936 ± 0.015,0.915 ± 0.024,0.946 ± 0.13,0.955 ± 0.074,0.939 ± 0.051
E2QRB3 and related entries (UniProt P32322),0.979 ± 0.011,0.985 ± 0.039,0.958 ± 0.018,0.975 ± 0.025,0.937 ± 0.014,0.96 ± 0.033
E9PRR0 and related entries (UniProt O95831),1.03 ± 0.026,1 ± 0.03,0.983 ± 0.025,0.973 ± 0.046,0.994 ± 0.041,0.977 ± 0.02
F8WCF6 and related entries (UniProt P59998),0.968 ± 0.13,0.957 ± 0.091,0.909 ± 0.073,0.889 ± 0.12,0.943 ± 0.075,0.92 ± 0.06
E7ET49 and related entries (UniProt Q8NCG7),0.998 ± 0.022,0.966 ± 0.055,1.01 ± 0.081,0.955 ± 0.036,0.922 ± 0.04,0.97 ± 0.057
E9PJF5 and related entries (UniProt Q9HCU9),0.993 ± 0.11,1.07 ± 0.14,1.04 ± 0.14,1.05 ± 0.17,1.02 ± 0.14,1.05 ± 0.099
E9PEJ6 and related entries (UniProt P98196),1.01 ± 0.029,1.012 ± 0.0072,1.04 ± 0.016,0.959 ± 0.015,0.985 ± 0.014,0.972 ± 0.047
E9PS00 and related entries (UniProt Q9Y5Q0),0.96657 ± 0.00075,1.11 ± 0.019,1.13 ± 0.067,1.126 ± 0.0045,1.03 ± 0.11,1.13 ± 0.046
G3XA86 and related entries (UniProt Q9Y2Z9),0.963 ± 0.051,1.04 ± 0.067,1.05 ± 0.093,0.951 ± 0.038,0.95 ± 0.038,1.03 ± 0.13
E7EX17 and related entries (UniProt P23588),0.982 ± 0.072,0.989 ± 0.04,1.01 ± 0.037,1.1 ± 0.051,1.035 ± 0.0085,1.05 ± 0.021
F6X3N5 and related entries (UniProt P62873),1 ± 0.03,0.959 ± 0.05,0.95 ± 0.014,0.958 ± 0.049,0.9465 ± 0.0079,0.955 ± 0.015
F8VS36 and related entries (UniProt Q92994),0.982 ± 0.069,1.02 ± 0.097,0.982 ± 0.013,1.02 ± 0.058,0.958 ± 0.059,0.97 ± 0.025
G3V4K3 and related entries (UniProt Q9H9C1),0.982 ± 0.099,0.95 ± 0.072,0.949 ± 0.068,0.95 ± 0.084,0.971 ± 0.057,0.942 ± 0.051
F5GWD3 and related entries (UniProt Q13889),1.07 ± 0.11,1.06 ± 0.058,1.05 ± 0.041,1.05 ± 0.17,1.09 ± 0.023,1.13 ± 0.12
E9PMJ2 and related entries (UniProt Q9BPY3),0.978 ± 0.061,0.96 ± 0.037,0.968 ± 0.04,0.931 ± 0.045,0.944 ± 0.021,0.948 ± 0.043
G3V553 and related entries (UniProt Q9NWQ4),1.05 ± 0.19,1.16 ± 0.12,1.23 ± 0.069,1.14 ± 0.075,1.23 ± 0.12,1.33 ± 0.23
F5H4V9 and related entries (UniProt Q16342),0.968 ± 0.032,0.989 ± 0.076,1 ± 0.081,1.12 ± 0.057,1.02 ± 0.043,1.06 ± 0.012
E9PE19 and related entries (UniProt Q12830),1.02 ± 0.034,1.04 ± 0.039,1.06 ± 0.05,1.11 ± 0.12,1.07 ± 0.066,1.11 ± 0.055
G3V529 and related entries (UniProt Q9GZR7),1 ± 0.04,1.01 ± 0.02,1.01 ± 0.019,1.02 ± 0.012,1.05 ± 0.027,1.08 ± 0.037
F5H0R1 and related entries (UniProt Q9H6E5),0.9847 ± 0.0058,0.9874 ± 0.0061,1 ± 0.03,0.982 ± 0.012,0.9619 ± 0.0025,0.989 ± 0.012
F8W8G5 and related entries (UniProt P10242),1.11 ± 0.034,1.1 ± 0.038,1.15 ± 0.062,1.15 ± 0.061,1.19 ± 0.096,1.21 ± 0.093
